Data: the supplement of paper PMC12823440, “Inhibitors supercharge kinase turnover through native proteolytic circuits” (Nature, 2025)
Structures can show the parent of a compound that is named as a salt. The list shows a part of the results. Hit calls seldom repeat between salt and free forms of one compound.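 In K562 cells expressing nanoluciferase-fused kinases, luminescence was recorded at 4 h intervals between 2 and 18 h, normalized as percent of control with DMSO at 100% and a positive control at 0%. A significant (2 sigma) signal drop marks a time point as decreased. The authors' rule for a hit is not shown and takes in more than the number of time points.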

By UniProt entry, the sequences of proteins in these tests, tags left out. Where a name states a change or a piece, a line headed by the entry shows the natural chain unless it says otherwise.
UniProt P21802, whole entry, looked up: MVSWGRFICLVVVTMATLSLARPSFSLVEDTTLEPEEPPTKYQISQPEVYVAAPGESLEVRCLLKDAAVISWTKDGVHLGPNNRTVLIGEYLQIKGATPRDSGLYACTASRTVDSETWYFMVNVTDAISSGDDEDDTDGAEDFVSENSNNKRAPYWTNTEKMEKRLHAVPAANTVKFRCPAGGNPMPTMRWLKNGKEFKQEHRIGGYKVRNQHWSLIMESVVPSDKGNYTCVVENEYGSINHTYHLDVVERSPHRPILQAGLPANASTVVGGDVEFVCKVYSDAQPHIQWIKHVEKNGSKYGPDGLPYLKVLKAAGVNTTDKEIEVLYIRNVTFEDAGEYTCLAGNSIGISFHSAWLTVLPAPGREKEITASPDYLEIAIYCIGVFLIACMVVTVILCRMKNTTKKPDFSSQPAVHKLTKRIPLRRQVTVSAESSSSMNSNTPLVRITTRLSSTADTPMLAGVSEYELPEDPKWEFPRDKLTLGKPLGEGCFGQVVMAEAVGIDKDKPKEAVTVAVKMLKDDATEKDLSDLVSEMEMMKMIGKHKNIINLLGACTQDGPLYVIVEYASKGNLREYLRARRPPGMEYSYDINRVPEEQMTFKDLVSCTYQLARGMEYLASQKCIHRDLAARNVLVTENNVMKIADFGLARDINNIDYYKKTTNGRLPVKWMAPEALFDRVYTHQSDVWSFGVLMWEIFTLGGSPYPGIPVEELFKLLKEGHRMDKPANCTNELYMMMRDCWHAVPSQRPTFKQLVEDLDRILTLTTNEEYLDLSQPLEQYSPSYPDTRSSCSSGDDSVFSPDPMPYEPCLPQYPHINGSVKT
UniProt P22607, whole entry, looked up: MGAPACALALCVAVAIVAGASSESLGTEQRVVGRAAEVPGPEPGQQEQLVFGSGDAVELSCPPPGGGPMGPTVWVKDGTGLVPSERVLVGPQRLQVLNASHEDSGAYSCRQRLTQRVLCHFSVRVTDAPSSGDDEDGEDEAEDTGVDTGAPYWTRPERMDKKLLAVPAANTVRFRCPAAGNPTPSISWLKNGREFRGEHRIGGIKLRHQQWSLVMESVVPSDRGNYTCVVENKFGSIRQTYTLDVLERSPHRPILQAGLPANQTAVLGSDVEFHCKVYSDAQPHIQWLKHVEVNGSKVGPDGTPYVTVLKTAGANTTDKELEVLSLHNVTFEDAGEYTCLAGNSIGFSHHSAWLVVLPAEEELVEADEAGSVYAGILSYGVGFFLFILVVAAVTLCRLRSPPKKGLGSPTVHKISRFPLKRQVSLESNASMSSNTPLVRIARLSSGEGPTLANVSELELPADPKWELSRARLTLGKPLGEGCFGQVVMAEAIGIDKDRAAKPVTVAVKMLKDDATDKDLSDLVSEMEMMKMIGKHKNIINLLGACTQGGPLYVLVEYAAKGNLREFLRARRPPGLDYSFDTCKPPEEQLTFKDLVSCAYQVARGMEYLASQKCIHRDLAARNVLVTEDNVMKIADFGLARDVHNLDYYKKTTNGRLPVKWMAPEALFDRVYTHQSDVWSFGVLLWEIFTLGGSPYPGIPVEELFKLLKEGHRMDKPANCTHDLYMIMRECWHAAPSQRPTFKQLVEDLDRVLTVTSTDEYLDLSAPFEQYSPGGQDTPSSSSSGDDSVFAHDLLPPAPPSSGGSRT
UniProt P49840: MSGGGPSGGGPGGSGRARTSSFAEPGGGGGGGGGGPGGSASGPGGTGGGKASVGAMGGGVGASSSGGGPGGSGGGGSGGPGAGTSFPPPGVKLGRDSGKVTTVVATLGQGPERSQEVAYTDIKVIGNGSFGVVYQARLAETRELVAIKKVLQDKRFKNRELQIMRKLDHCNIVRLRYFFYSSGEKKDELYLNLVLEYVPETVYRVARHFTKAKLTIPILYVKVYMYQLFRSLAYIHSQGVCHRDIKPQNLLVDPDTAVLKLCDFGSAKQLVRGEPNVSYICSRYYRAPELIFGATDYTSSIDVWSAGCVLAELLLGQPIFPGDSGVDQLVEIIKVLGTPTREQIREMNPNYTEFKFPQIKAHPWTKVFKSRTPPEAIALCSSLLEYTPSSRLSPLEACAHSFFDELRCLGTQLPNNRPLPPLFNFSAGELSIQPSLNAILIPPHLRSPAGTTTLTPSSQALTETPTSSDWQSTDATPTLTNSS
UniProt P14616: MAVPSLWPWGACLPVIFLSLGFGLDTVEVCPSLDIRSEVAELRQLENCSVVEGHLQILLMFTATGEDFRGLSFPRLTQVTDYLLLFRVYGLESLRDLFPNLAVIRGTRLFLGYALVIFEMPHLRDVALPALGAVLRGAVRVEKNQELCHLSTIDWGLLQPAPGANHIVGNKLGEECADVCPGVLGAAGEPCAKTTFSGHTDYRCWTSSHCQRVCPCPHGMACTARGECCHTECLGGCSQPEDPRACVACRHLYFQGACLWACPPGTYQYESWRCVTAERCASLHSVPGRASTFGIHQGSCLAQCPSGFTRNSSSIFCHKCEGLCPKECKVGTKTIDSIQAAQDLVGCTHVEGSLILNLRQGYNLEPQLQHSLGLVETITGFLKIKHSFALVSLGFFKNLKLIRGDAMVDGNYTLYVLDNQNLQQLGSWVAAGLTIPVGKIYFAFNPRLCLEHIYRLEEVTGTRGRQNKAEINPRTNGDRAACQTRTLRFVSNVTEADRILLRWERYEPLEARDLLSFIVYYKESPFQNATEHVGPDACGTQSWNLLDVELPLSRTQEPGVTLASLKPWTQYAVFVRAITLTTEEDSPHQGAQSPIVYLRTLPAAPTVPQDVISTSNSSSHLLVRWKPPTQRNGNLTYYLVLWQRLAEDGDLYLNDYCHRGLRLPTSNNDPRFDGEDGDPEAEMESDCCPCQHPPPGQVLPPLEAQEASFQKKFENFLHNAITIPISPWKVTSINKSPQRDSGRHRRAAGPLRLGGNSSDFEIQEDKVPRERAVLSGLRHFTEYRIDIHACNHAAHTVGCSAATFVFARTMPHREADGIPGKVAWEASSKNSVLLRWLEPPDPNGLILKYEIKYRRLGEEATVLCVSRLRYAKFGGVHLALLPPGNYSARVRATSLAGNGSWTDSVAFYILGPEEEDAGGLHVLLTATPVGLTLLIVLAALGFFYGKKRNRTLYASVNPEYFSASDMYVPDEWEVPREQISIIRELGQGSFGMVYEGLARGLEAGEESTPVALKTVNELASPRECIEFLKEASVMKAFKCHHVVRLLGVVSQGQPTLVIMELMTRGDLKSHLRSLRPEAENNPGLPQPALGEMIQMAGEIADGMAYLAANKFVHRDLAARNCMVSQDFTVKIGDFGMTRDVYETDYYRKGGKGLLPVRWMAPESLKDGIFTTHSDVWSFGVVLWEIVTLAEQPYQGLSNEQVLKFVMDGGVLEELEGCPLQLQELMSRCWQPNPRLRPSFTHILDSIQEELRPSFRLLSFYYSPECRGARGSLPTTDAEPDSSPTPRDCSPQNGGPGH
UniProt Q9Y616: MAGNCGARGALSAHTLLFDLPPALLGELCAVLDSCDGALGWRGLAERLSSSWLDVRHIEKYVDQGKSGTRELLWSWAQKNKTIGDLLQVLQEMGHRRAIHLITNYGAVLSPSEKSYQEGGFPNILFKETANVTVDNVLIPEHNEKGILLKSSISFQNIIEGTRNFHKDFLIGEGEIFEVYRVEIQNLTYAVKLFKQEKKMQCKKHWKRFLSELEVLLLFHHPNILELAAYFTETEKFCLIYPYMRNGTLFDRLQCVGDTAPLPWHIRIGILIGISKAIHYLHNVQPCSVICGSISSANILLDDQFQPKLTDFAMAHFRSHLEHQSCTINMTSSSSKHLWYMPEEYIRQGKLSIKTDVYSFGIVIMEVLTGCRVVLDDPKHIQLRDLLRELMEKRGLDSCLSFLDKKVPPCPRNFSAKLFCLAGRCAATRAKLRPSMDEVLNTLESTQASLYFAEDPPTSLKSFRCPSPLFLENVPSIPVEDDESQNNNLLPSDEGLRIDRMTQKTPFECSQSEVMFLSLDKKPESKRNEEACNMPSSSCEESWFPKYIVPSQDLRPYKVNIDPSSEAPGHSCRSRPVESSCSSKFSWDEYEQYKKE
UniProt P06239: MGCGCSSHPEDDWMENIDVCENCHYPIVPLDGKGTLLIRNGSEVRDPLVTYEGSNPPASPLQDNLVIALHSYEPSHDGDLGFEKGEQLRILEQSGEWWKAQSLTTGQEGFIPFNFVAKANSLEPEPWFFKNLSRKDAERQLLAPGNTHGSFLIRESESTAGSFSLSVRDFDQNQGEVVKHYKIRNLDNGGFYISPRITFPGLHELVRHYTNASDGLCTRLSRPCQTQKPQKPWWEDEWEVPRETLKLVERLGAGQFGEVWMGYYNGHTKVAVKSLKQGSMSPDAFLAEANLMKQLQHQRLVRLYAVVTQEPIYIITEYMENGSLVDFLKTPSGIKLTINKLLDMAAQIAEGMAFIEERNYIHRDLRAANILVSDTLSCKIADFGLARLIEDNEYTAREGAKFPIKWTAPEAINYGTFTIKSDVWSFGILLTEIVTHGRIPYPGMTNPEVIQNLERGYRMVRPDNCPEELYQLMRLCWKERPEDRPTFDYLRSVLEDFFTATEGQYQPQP
UniProt P53667: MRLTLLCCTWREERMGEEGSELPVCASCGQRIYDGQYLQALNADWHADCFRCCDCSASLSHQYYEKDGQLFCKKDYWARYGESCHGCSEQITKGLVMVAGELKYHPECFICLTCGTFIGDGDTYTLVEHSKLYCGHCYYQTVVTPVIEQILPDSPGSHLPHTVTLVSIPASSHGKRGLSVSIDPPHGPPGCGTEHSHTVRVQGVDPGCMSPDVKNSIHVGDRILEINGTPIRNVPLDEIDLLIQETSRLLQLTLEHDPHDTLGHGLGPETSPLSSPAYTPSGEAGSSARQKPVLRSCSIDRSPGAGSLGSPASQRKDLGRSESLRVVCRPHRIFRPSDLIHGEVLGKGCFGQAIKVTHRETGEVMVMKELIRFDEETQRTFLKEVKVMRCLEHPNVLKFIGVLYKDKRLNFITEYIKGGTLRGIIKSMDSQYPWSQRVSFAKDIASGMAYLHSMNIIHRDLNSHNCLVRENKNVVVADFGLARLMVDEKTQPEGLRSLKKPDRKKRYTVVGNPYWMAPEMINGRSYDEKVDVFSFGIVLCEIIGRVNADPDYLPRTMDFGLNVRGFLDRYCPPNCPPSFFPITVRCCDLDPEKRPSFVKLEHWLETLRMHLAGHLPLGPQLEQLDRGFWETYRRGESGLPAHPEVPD
UniProt P07948: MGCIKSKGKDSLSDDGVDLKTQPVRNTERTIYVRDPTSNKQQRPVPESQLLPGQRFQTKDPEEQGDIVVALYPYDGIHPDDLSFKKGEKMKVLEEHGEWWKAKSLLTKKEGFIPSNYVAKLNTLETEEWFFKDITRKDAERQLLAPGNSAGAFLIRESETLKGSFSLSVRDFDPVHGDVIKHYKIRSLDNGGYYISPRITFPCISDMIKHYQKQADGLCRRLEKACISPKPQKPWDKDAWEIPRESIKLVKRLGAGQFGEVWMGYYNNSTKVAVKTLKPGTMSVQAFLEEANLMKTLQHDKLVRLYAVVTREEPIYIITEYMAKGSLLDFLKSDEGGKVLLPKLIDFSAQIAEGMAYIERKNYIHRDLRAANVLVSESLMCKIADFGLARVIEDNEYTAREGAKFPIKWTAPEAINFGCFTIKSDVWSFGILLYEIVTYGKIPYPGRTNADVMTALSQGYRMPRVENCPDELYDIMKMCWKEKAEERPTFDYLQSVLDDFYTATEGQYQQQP
UniProt Q12851: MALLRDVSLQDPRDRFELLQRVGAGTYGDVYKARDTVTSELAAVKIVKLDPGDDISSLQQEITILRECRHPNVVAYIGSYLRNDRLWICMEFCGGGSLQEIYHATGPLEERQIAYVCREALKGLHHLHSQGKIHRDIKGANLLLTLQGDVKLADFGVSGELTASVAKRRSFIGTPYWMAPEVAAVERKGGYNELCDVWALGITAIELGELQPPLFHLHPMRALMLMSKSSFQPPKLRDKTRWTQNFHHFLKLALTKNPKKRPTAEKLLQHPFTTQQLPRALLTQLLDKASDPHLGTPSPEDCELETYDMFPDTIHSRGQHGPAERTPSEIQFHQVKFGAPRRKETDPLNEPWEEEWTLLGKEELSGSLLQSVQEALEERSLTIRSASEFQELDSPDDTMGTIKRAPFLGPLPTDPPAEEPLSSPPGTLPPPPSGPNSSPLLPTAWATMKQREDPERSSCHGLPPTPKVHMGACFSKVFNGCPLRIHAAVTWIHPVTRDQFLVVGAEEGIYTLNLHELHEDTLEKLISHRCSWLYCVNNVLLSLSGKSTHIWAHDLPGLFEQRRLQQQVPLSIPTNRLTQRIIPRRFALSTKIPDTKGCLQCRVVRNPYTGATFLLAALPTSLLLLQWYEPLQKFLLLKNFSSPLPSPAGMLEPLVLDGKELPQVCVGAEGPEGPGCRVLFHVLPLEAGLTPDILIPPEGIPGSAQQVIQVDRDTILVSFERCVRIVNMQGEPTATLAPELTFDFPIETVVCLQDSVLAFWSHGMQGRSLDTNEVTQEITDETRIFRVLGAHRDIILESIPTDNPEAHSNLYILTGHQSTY

What was measured:
Assay in all cases: kinase-Nluc reporter destabilization hit call (1 = scored as downregulated) (binary); higher = compound decreases kinase abundance
Settings in all cases: K562, 2-18 h
[1] = target: ERN1 (UniProt O75460)
[2] = target: FGFR1 (UniProt P11362)
[3] = target: FGFR2 (UniProt P21802)
[4] = target: FGFR3 (UniProt P22607)
[5] = target: FGR (UniProt P09769)
[6] = target: FLT3 (UniProt P36888)
[7] = target: FYN (UniProt P06241)
[8] = target: GSK3A (UniProt P49840)
[9] = target: HER2 (UniProt P04626)
[10] = target: INSRR (UniProt P14616)
[11] = target: IRAK3 (UniProt Q9Y616)
[12] = target: JAK1 (UniProt P23458)
[13] = target: LCK (UniProt P06239)
[14] = target: LIMK1 (UniProt P53667)
[15] = target: LIMK2 (UniProt P53671)
[16] = target: LMTK2 (UniProt Q8IWU2)
[17] = target: LYN (UniProt P07948)
[18] = target: MAP2K1 (UniProt Q02750)
[19] = target: MAP2K2 (UniProt P36507)
[20] = target: MAP4K2 (UniProt Q12851)

Measured: kinase-Nluc reporter destabilization hit call

N=C(N)NC(=O)c1nc(Cl)c(N)nc1N [Amiloride (hydrochloride)]
inactive: [1]; 10 µM 0 | [2]; 10 µM 0 | [3]; 10 µM 0 | [4]; 10 µM 0 | [5]; 10 µM 0 | [6]; 10 µM 0 | [7]; 10 µM 0 | [8]; 10 µM 0 | [9]; 10 µM 0 | [10]; 10 µM 0 | [11]; 10 µM 0 | [12]; 10 µM 0 | [13]; 10 µM 0 | [14]; 10 µM 0 | [15]; 10 µM 0 | [16]; 10 µM 0 | [17]; 10 µM 0 | [18]; 10 µM 0 | [19]; 10 µM 0 | [20]; 10 µM 0

O=C(Nc1ccncc1)Nc1ccc(-c2nc(N3CCOCC3)nc(N3C4CCC3COC4)n2)cc1
inactive: [1]; 10 µM 0 | [3]; 10 µM 0 | [4]; 10 µM 0 | [5]; 10 µM 0 | [6]; 10 µM 0 | [7]; 10 µM 0 | [8]; 10 µM 0 | [9]; 10 µM 0 | [10]; 10 µM 0 | [11]; 10 µM 0 | [12]; 10 µM 0 | [13]; 10 µM 0 | [14]; 10 µM 0 | [15]; 10 µM 0 | [16]; 10 µM 0 | [17]; 10 µM 0 | [18]; 10 µM 0 | [19]; 10 µM 0 | [20]; 10 µM 0
active: [2]; 10 µM 1

Cn1ncc(Cl)c1-c1cc(C(=O)N[C@H](CN)Cc2cccc(F)c2)sc1Cl [Afuresertib]
inactive: [1]; 10 µM 0 | [2]; 10 µM 0 | [3]; 10 µM 0 | [4]; 10 µM 0 | [5]; 10 µM 0 | [6]; 10 µM 0 | [7]; 10 µM 0 | [8]; 10 µM 0 | [9]; 10 µM 0 | [10]; 10 µM 0 | [11]; 10 µM 0 | [12]; 10 µM 0 | [13]; 10 µM 0 | [14]; 10 µM 0 | [15]; 10 µM 0 | [16]; 10 µM 0 | [17]; 10 µM 0 | [18]; 10 µM 0 | [19]; 10 µM 0 | [20]; 10 µM 0

CCc1nc(C(N)=O)c(Nc2ccc(N3CCC(N4CCN(C)CC4)CC3)c(OC)c2)nc1NC1CCOCC1 [Gilteritinib]
inactive: [1]; 2 µM 0 | [2]; 2 µM 0 | [3]; 2 µM 0 | [4]; 2 µM 0 | [5]; 2 µM 0 | [6]; 2 µM 0 | [7]; 2 µM 0 | [8]; 2 µM 0 | [9]; 2 µM 0 | [10]; 2 µM 0 | [11]; 2 µM 0 | [12]; 2 µM 0 | [13]; 2 µM 0 | [14]; 2 µM 0 | [15]; 2 µM 0 | [16]; 2 µM 0 | [17]; 2 µM 0 | [18]; 2 µM 0 | [19]; 2 µM 0 | [20]; 2 µM 0

Cc1cccc(-c2[nH]c(CNc3ccccc3F)nc2-c2ccc3ncnn3c2)n1 [Vactosertib]
inactive: [1]; 2.5 µM 0 | [2]; 2.5 µM 0 | [3]; 2.5 µM 0 | [4]; 2.5 µM 0 | [5]; 2.5 µM 0 | [6]; 2.5 µM 0 | [7]; 2.5 µM 0 | [8]; 2.5 µM 0 | [9]; 2.5 µM 0 | [10]; 2.5 µM 0 | [11]; 2.5 µM 0 | [12]; 2.5 µM 0 | [13]; 2.5 µM 0 | [14]; 2.5 µM 0 | [15]; 2.5 µM 0 | [16]; 2.5 µM 0 | [17]; 2.5 µM 0 | [18]; 2.5 µM 0 | [19]; 2.5 µM 0 | [20]; 2.5 µM 0

O=C(Nc1ccncc1)Nc1ccc(-c2nc(N3CCOCC3)nc(N3C4CCC3COC4)n2)cc1 [PKI-179 (hydrochloride)]
inactive: [1]; 2.5 µM 0 | [2]; 2.5 µM 0 | [3]; 2.5 µM 0 | [4]; 2.5 µM 0 | [5]; 2.5 µM 0 | [6]; 2.5 µM 0 | [7]; 2.5 µM 0 | [8]; 2.5 µM 0 | [9]; 2.5 µM 0 | [10]; 2.5 µM 0 | [11]; 2.5 µM 0 | [12]; 2.5 µM 0 | [13]; 2.5 µM 0 | [14]; 2.5 µM 0 | [15]; 2.5 µM 0 | [16]; 2.5 µM 0 | [17]; 2.5 µM 0 | [18]; 2.5 µM 0 | [19]; 2.5 µM 0 | [20]; 2.5 µM 0

COc1ccc(S(=O)(=O)Nc2ccccc2CN(C)C/C=C/c2ccc(Cl)cc2)cc1 [KN-92 (hydrochloride)]
inactive: [1]; 2.5 µM 0 | [2]; 2.5 µM 0 | [3]; 2.5 µM 0 | [4]; 2.5 µM 0 | [5]; 2.5 µM 0 | [6]; 2.5 µM 0 | [7]; 2.5 µM 0 | [8]; 2.5 µM 0 | [9]; 2.5 µM 0 | [10]; 2.5 µM 0 | [11]; 2.5 µM 0 | [12]; 2.5 µM 0 | [13]; 2.5 µM 0 | [14]; 2.5 µM 0 | [15]; 2.5 µM 0 | [16]; 2.5 µM 0 | [17]; 2.5 µM 0 | [18]; 2.5 µM 0 | [19]; 2.5 µM 0 | [20]; 2.5 µM 0

CN(C)C/C=C/C(=O)Nc1cc2c(Nc3ccc(F)c(Cl)c3)ncnc2cc1O[C@H]1CCOC1 [Afatinib]
active: [9]; 10 µM 1
inactive: [1]; 10 µM 0 | [2]; 10 µM 0 | [3]; 10 µM 0 | [4]; 10 µM 0 | [5]; 10 µM 0 | [6]; 10 µM 0 | [7]; 10 µM 0 | [8]; 10 µM 0 | [10]; 10 µM 0 | [11]; 10 µM 0 | [12]; 10 µM 0 | [13]; 10 µM 0 | [14]; 10 µM 0 | [15]; 10 µM 0 | [16]; 10 µM 0 | [17]; 10 µM 0 | [18]; 10 µM 0 | [19]; 10 µM 0 | [20]; 10 µM 0

Oc1cccc(-c2nc(N3CCOCC3)c3oc4ncccc4c3n2)c1 [PI-103 (Hydrochloride)]
inactive: [1]; 2.5 µM 0 | [2]; 2.5 µM 0 | [3]; 2.5 µM 0 | [4]; 2.5 µM 0 | [5]; 2.5 µM 0 | [6]; 2.5 µM 0 | [7]; 2.5 µM 0 | [8]; 2.5 µM 0 | [9]; 2.5 µM 0 | [10]; 2.5 µM 0 | [11]; 2.5 µM 0 | [12]; 2.5 µM 0 | [13]; 2.5 µM 0 | [14]; 2.5 µM 0 | [15]; 2.5 µM 0 | [16]; 2.5 µM 0 | [17]; 2.5 µM 0 | [18]; 2.5 µM 0 | [19]; 2.5 µM 0 | [20]; 2.5 µM 0
